Measured values published in PubChem BioAssay AID2685 (National Center for Advancing Translational Sciences (NCATS), 2010).
Out of some 320,000 compounds screened, about 2,100 (0.66%) were called active. Inconclusive means that the source gave no clear call. Such entries were picked first, then a sample of the others. Calls follow the shape of the dose curve; as a rule, active = well fitted inhibition curve with a large enough effect in the signal ratio, with a control signal flat (not every such curve was filed as active); inconclusive = small, poorly fitted or top-dose-only effect, or effect the other way, or a change in a side signal; inactive = flat fitted curve, though single readings scatter; the % refers to the signal ratio. A potency beside an inconclusive call is a rough fit, not a confirmed value.
% is scaled to controls: 0 for no effect and ±100 for the full control effect; potency is read from the fitted curve at half-maximal effect.

Assay: qHTS Assay for Lipid Storage Modulators in Drosophila S3 Cells
Conditions: BODIPY lipid droplet fluorescence, 18-24 h, cells fed with added oleic acid; lipid storage change, negative = inhibition: at 46.1 µM (top of the series) unless noted
Method in brief: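 Drosophila S3 cells loaded with oleic acid (400 uM, as added) and compounds at several concentrations; lipid droplets imaged by 488-nm laser-scanning cytometry, 500–530 nm intensity and object ratio to cell channel. Percent activity normalized to 20 uM Triacsin C.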
With `CC(=O)c1c(C)[nH]c(C(=O)COC(=O)c2cccnc2Cl)c1C` the lipid storage change, negative = inhibition was inconclusive: 12.3%. For `COC(=O)c1ccc(COC(=O)c2[nH]c(C)c(C(C)=O)c2C)o1`, the Potency was inconclusive: 29.1 µM [falling, single point]. With `O=C(O)c1ccc(NC(=O)C2CC=CCC2C(=O)O)cc1` (centres undefined) the Potency was active: 0.184 µM. In the case of `Nc1nc(-c2ccccc2)cn1N`, the Potency is reported as inconclusive: 25.9 µM [falling, partial curve]. With `CC1=C(C(=O)OC(C)C)C(c2cccnc2)n2ncnc2N1` (centres undefined) the lipid storage change, negative = inhibition was inconclusive: 7.32%. In the case of `CSCCOC(=O)COc1ccc(/C=N/NC(=O)c2nn(C)cc2Cl)cc1`, the lipid storage change, negative = inhibition is reported as inconclusive: 0.13%. For `CC(Sc1nnc(-c2ccccc2)c(-c2ccccc2)n1)C(=O)N1CCc2ccccc21` (centres undefined), the Potency was inconclusive: 16.4 µM [falling, partial curve]. With `COc1ccccc1CNC(=O)COC(=O)C1CCN(S(=O)(=O)c2ccc(C)c(C)c2)CC1` the Potency was inconclusive: 29.1 µM [activator, single point]. With `COc1ccc(NS(=O)(=O)c2ccc3c(c2)NC(=O)C(C)S3)cc1` (centres undefined) the Potency was inconclusive: 29.1 µM [falling, single point]. For `COc1ccc(NC(=O)c2cnc(SCC(=O)NCCc3ccccc3)n(C)c2=O)cc1`, the Potency was inconclusive: 1.64 µM [activator, full curve, poor fit]. In the case of `CC(C)(C)c1ccc(C(=O)NCCC(=O)Nc2cc(Cl)ccc2N2CCOCC2)cc1`, the Potency is reported as inconclusive: 0.291 µM [falling, partial curve, poor fit]. With `O=C(O)C1CCN(C(=O)c2cccc3ccccc23)CC1` the Potency was inconclusive: 1.84 µM [falling, full curve, poor fit]. For `Cc1cc(Cl)ccc1OCC(=O)NN1C(=O)C2C3C=CC(C3)C2C1=O` (centres undefined), the lipid storage change, negative = inhibition was inconclusive: -3.01%. With `Cc1ccc(NC2=C(N3CCOCC3)C(=O)c3ccccc3C2=O)cc1` the Potency was inconclusive: 29.1 µM [cytotoxic, single point]. For `Cc1cc(NC(=O)c2cccc(F)c2)no1`, the lipid storage change, negative = inhibition was “inactive”. In the case of `O=C(CSc1nnc(NCc2ccccc2)s1)NC1CCS(=O)(=O)C1` (centres undefined), the lipid storage change, negative = inhibition is reported as inconclusive: -24.7%. With `O=C(COc1ccc(Cl)cc1Cl)NC(=S)N1CCCc2ccccc21` the Potency was inconclusive: 0.58 µM [rising, single point]. For `O=[N+]([O-])c1ccc(S(=O)(=O)Nc2ccncc2)cc1`, the Potency was inconclusive: 8.2 µM [activator, partial curve]. In the case of `FC(F)(F)c1cccc(Cc2noc(CN3CCSCC3)n2)c1`, the lipid storage change, negative = inhibition is reported as inconclusive: 9.81%. In the case of `O=C(NN1C(=O)C2C(C1=O)C1C=CC2C12CC2)c1ccccc1` (centres undefined), the Potency is reported as inconclusive: 11.6 µM [activator, partial curve]. With `CCOC(=O)N1CCN(C(=O)c2ccc(N3C(=O)c4ccccc4C3=O)cc2)CC1` the Potency was inconclusive: 11.6 µM [activator, partial curve]. For `Cc1ccc(-c2nn(C)c(=O)c3ccccc23)cc1S(=O)(=O)NCCO`, the Potency was inconclusive: 6.51 µM [activator, partial curve, poor fit]. With `CC(=O)c1c(C)[nH]c(C(=O)CN2CCN(S(=O)(=O)c3ccc(C(C)C)cc3)CC2)c1C` the Potency was inconclusive: 0.0041 µM [falling, full curve, poor fit]. With `CCOc1ccc(-n2cc(C(=O)Nc3cccc(Cl)c3)c3cc(OC)c(OC)cc3c2=O)cc1` the lipid storage change, negative = inhibition was inconclusive: -0.376%. For `O=C(O)CC(CC(=O)O)(C(=O)O)c1ccccc1`, the lipid storage change, negative = inhibition was inconclusive: -29.4%. For `CC1CCC(NS(=O)(=O)c2ccc(Cl)s2)CC1` (centres undefined), the lipid storage change, negative = inhibition was “inconclusive”. With `CC(C)CN(C(=O)CN(C)C(=O)Cc1ccccc1Cl)c1c(N)n(CC(C)C)c(=O)[nH]c1=O` the lipid storage change, negative = inhibition was inconclusive: -1.5%. In the case of `NS(=O)(=O)c1ccc(CCNC(=O)c2ccc(Cl)nc2)cc1`, the Potency is reported as inconclusive: 1.64 µM [falling, partial curve]. For `C[C@H](NC(=O)c1ccccc1Cl)C(=O)NCCc1ccc(S(N)(=O)=O)cc1`, the Potency was inconclusive: 4.11 µM [falling, partial curve, poor fit]. In the case of `COc1ccc2c3c(c(=O)oc2c1)C1O[C@](c2ccsc2)(Cc2cc(C#N)ccc21)O3`, the lipid storage change, negative = inhibition is reported as inconclusive: 27.9% [at 9.22 µM]. In the case of `Cc1noc(C)c1S(=O)(=O)N(CC(=O)N1CCCC1)c1ccc(C(C)C)cc1`, the Potency is reported as inconclusive: 29.1 µM [rising, single point]. For `CCCCC(=O)NC(NC(=O)CCCC)c1ccc(OCCC)c(OC)c1`, the lipid storage change, negative = inhibition was inconclusive: -14.8%. In the case of `N#Cc1nc(-c2ccccc2Cl)oc1NCC1CCCO1` (centres undefined), the lipid storage change, negative = inhibition is reported as inconclusive: -0.337%. For `CC1(C)C(=O)Nc2ccccc2N1C(=O)COC(=O)c1ccc(NC(N)=O)cc1`, the lipid storage change, negative = inhibition was “inconclusive”. With `Cc1csc(NC(=O)c2nn(C)c(C)c2[N+](=O)[O-])n1` the lipid storage change, negative = inhibition was inconclusive: 5.37%. In the case of `CN(CC(=O)Nc1ccc(F)cc1)CC(=O)N(C)C1(C#N)CCCCC1`, the lipid storage change, negative = inhibition is reported as inconclusive: 4.41%. For `N#Cc1nc(-c2cccs2)oc1NCc1ccc2c(c1)OCO2`, the lipid storage change, negative = inhibition was inconclusive: 61.8%. For `Cc1ccc(N/C=C2\C(=O)N(c3ccc(F)cc3F)C(c3cccnc3)S2(=O)=O)cc1` (centres undefined), the lipid storage change, negative = inhibition was inconclusive: 9.15%. With `CCN(C1CCCCC1)S(=O)(=O)CCNC(=O)c1ccccc1` the lipid storage change, negative = inhibition was inconclusive: 22%. With `COCCCNC(=S)N/N=C/c1ccc2c(c1)OCO2` the lipid storage change, negative = inhibition was inconclusive: 8.48%. In the case of `O=C(COc1ccc(Br)cc1)Nc1ccccc1C(=O)N1CCOCC1`, the lipid storage change, negative = inhibition is reported as inconclusive: 1.07%. With `O=S(=O)(c1ccc2ccccc2c1)N1CCOCC1` the Potency was inconclusive: 4.11 µM [falling, single point]. With `O=C(NCCCn1ccnc1)C1CCCN(S(=O)(=O)c2ccc(F)cc2)C1` (centres undefined) the Potency was inconclusive: 6.51 µM [activator, single point]. With `CCCCOC(=O)Oc1ccc2c(=O)c(Oc3cc(C)cc(C)c3)coc2c1` the lipid storage change, negative = inhibition was inconclusive: -45.6%. For `Cc1oc(C(=O)O)cc1COc1cccc2cccnc12`, the Potency was active: 6.51 µM. With `Cc1ccc(N=Nc2ccc3ccccc3c2O)cc1` the Potency was active: 0.058 µM. For `CCSc1nc(C)c(CC)c(C)c1C(N)=O`, the Potency was inconclusive: 4.11 µM [falling, full curve]. In the case of `Cc1noc(C)c1CSc1nc2[nH]ncc2c(=O)n1-c1ccccc1`, the lipid storage change, negative = inhibition is reported as inconclusive: -20.6%. In the case of `O=C(NNC(=O)C1COc2ccccc2O1)c1ccccc1` (centres undefined), the lipid storage change, negative = inhibition is reported as inconclusive: -23.4%. In the case of `O=C1NC(=S)S/C1=C1\Sc2ccccc2N1CCCS(=O)(=O)O`, the lipid storage change, negative = inhibition is reported as inconclusive: 4.2%. With `Cc1c(-c2cccc(Cl)c2)nc2ccccc2c1C(=O)NC1CC1` the Potency was inconclusive: 0.517 µM [activator, single point]. With `CC1CN(C(=O)CCC(=O)NCCc2ccccc2)c2ccccc2O1` (centres undefined) the lipid storage change, negative = inhibition was inconclusive: -21.6%. With `OCc1nc2ccc(Cl)cc2[nH]1` the lipid storage change, negative = inhibition was inconclusive: -0.753%. For `CC(C)CN(C(=O)COC(=O)c1ccccc1Sc1ccccc1C#N)C1CCS(=O)(=O)C1` (centres undefined), the Potency was inconclusive: 16.4 µM [rising, single point]. With `CC(NC(=O)C(=O)NCCN1CCN(C(=O)c2ccccc2Br)CC1)c1ccccc1` (centres undefined) the lipid storage change, negative = inhibition was inconclusive: -64.2%. For `COCCCNC(=S)Nc1cc(C)c(C)cc1C`, the lipid storage change, negative = inhibition was inconclusive: -3.3%. With `COCCCNC(=O)c1ccc(N2CCOCC2)c(NS(=O)(=O)c2ccc(OC)cc2)c1` the Potency was inconclusive: 0.13 µM [activator, full curve, poor fit]. For `COc1ccc(C(=O)/C=C/c2cccc(OCc3ccccc3)c2)cc1CSCC(=O)O`, the Potency was inconclusive: 8.91 µM [falling, partial curve]. For `CC(=O)c1ccc(OCC(=O)N2CCN(S(=O)(=O)c3ccc(C)cc3C)CC2)cc1`, the lipid storage change, negative = inhibition was inconclusive: 3.68%. With `CCOC(=O)c1ccc(NC(=O)CCNS(=O)(=O)c2cccs2)cc1` the Potency was inconclusive: 29.1 µM [activator, single point]. In the case of `O=C(O)CSc1nnc(CNc2cccc(C(F)(F)F)c2)n1Cc1ccco1`, the lipid storage change, negative = inhibition is reported as inconclusive: -20.8%. For `Cc1nc(Cl)sc1C(=O)Nc1ccccc1Cl`, the lipid storage change, negative = inhibition was “inactive”. In the case of `CCc1nn(CCCC(=O)Nc2ccc(C)c(C)c2)c(=O)c2cc3occc3n12`, the lipid storage change, negative = inhibition is reported as inconclusive: 104%. In the case of `CN1CCN(c2nc3c(c(=O)[nH]c(=O)n3C)n2Cc2ccc(Cl)cc2)CC1`, the lipid storage change, negative = inhibition is reported as inconclusive: -40.3%. With `COc1ccccc1NC(=O)N(Cc1ccco1)Cc1cc2cccc(C)c2[nH]c1=O` the Potency was inconclusive: 0.461 µM [activator, full curve]. In the case of `Cn1nccc1C(=O)N/N=C/c1c(O)ccc2ccccc12`, the Potency is reported as active: 14.6 µM. With `COc1ccc(CCN(C)C(=O)CSc2nnc(-c3ccco3)o2)cc1OC` the Potency was inconclusive: 16.4 µM [falling, single point]. For `COc1cc(C(=O)Nc2c(C(=O)O)[nH]c3ccc(Br)cc23)cc(OC)c1OC`, the lipid storage change, negative = inhibition was inconclusive: -15.4%. With `Cc1ccc(NC(=O)CSc2nc3ccccc3nc2N2CCCC2)cc1` the lipid storage change, negative = inhibition was inconclusive: -58.9%. With `O=c1cc(Nc2ccc3c(c2)OCCO3)[nH]c(=O)n1-c1ccc(Cl)cc1` the lipid storage change, negative = inhibition was inconclusive: 19.5%. In the case of `CCN1CCN(C(=O)C2CCN(S(=O)(=O)c3cccc4cccnc34)CC2)CC1`, the lipid storage change, negative = inhibition is reported as inconclusive: 17.3% [at 9.22 µM]. In the case of `COc1ccc(/C=N/NC(=O)c2cccnc2)cc1O`, the lipid storage change, negative = inhibition is reported as inconclusive: 23.5%. With `CC(C)[C@H](NC(=O)N1CC(=O)Nc2ccccc21)C(=O)N[C@@H](Cc1c[nH]c2ccccc12)C(=O)O` the Potency was inconclusive: 20.6 µM [activator, single point]. In the case of `CCc1cc2c(=O)[nH]c(-c3ccccn3)nc2s1`, the lipid storage change, negative = inhibition is reported as inconclusive: -27.9%.
